Experimental data taken from patent US20220196676A1 (NORDIC BIOSCIENCE A S, published 2022).
Results are given in words; binding and its absence hold for the method and conditions named. Some results given as binding are weak or reduced against the parent protein; the word gives no strength.

How the values were obtained:
[1] = molecular target: T1, selection peptide … (C-terminal 10 amino acids of type VIII collagen α1 chain, 735-744) (human); experiment: C8-C competitive ELISA
T1 sequence (peptide): SFSGYLLYPM

[2] = molecular target: T1, selection peptide … (C-terminal 10 amino acids of type VIII collagen α1 chain, 735-744) (human); experiment: screening of hybridoma clones against peptides
[3] = molecular target: T1, selection peptide … (C-terminal 10 amino acids of type VIII collagen α1 chain, 735-744) (human); experiment: C8-C competitive ELISA, peptide specificity test

Measured: binding

B1: monoclonal antibody NB683-13G5 (antibody, mouse IgG1, kappa, V domains shown)
VH: EVLLQQSGPELEKPGASVKISCKASGYSLTDYNMNWVKQSDGKSLEWIGIIDPNYGDTNYNQKFKDKATLTVDKSSNTAHMQLKSLTSDDSAVYYCARSGYYGNSHYGLDYWGQGTSVTVSS
VL: QIVLTQSPAIMSASPGERVTMTCSVSSSVGYIHWYQQKSGTSPKRWISDTSKLASGVPSRFSGSGSGASYSLTIDRVEAEDAATYYCQQWSSNPPTFGGGTKLEMKR
notes: also called clone 13G5; monoclonal antibody 13G5
binds: all assays above
